For one substance, binding results are on record in publication PMC12118632.

Sequences of proteins named here, by UniProt entry; tags and fusion partners are left off. A change or cut given only in a name is not applied to a line headed by its entry.
UniProt O43524: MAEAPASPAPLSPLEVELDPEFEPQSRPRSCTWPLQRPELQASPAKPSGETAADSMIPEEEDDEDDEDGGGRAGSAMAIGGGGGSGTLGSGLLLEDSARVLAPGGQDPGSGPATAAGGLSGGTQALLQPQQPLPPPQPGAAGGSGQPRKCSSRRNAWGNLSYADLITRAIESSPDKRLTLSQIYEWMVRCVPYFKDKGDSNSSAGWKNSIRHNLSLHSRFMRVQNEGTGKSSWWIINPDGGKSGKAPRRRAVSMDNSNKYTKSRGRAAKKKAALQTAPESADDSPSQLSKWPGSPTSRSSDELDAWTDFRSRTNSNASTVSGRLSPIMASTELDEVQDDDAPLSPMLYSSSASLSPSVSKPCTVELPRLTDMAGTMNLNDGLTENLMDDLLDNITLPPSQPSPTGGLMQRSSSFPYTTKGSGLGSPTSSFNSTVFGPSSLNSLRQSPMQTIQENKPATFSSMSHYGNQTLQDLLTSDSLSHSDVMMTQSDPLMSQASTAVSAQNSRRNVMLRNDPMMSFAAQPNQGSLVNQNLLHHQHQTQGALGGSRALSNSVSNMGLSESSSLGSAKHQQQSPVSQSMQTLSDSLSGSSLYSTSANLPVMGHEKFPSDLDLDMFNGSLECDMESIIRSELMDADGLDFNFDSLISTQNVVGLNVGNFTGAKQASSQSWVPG
UniProt Q9H6Z9: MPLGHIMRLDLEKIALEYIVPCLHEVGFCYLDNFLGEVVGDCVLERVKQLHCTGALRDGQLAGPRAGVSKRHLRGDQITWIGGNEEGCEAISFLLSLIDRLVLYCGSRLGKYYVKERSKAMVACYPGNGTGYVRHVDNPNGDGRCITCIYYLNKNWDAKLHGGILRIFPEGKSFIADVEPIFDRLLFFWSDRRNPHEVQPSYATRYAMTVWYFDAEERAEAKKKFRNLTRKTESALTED

Results are given in words; binding and its absence hold for the method and conditions named. In cells and extracts the contact can be indirect. Some entries that bind do so weakly or less than the wild type.

Assay [1] has as its target P426A/P437A mutant (2P-A) FOXO3-FLAG (from pCMV6-FOXO3(P426A/P437A)::MYC-DDK) (UniProt O43524). The assay can be described thus: co-IP; as a1, but HEK293T cells without DMOG; anti-FLAG magnetic beads at 4°C overnight; Western blot with anti-V5 and anti-FLAG. A general note: Immunoblotting shows a protein as a band on a membrane.
Assay [2] shares this target. The assay can be described thus: co-IP; HEK293T cells transfected with both tagged proteins, treated with DMOG (1 mM) or MG132 (12,5 μM); lysis buffer 100 mM NaCl, 20 mM tris-HCl pH 7.4, 5 mM MgCl2, 0.5% Nonidet P-40; anti-FLAG magnetic beads at 4°C overnight; Western blot with anti-V5 and anti-FLAG.
The target of assay [3] is FOXO3-FLAG (Forkhead box O3, from pCMV6-FOXO3::MYC-DDK) (UniProt O43524). The description is as above.

For “PHD3-V5 (HIF prolyl hydroxylase 3, from pCMV6-PHD3::V5) (from UniProt Q9H6Z9 1-239) (enzyme)”, the binding result in assay [1] is recorded as “no binding (condition: cells without DMOG)”; in assay [2], “binds”; in assay [3], “binds”.
